PubChem BioAssay AID540276 (National Center for Advancing Translational Sciences (NCATS), 2011)
Among all 300,000 compounds or so, about 5,400 (1.8%) were called active. Inconclusive means that the source gave no clear call. Such entries were picked first, then a sample of the others. The call rests on the fitted dose curve; tested in HEK293 cells. A potency beside an inconclusive call is a rough fit, not a confirmed value.

Assay: qHTS for inhibitors of binding or entry into cells for Marburg Virus
Settings: Marburg virus pseudotyped entry inhibition, cell reporter; activity change, negative = inhibition: at 37.8 µM (top of the series) unless noted
On the % scale 0 is the no-effect control and ±100 the full control effect; potency means the concentration at half of the fitted maximal effect.

Structure (SMILES)	Potency	activity change, negative = inhibition
O=C(NCc1nnc(SCc2ccc(F)cc2)n1-c1ccc(F)cc1)C12CC3CC(CC(C3)C1)C2	active: 8.91 µM	
CCc1ccccc1N1CC(c2nc3ccccc3n2CCC2CCCCC2)CC1=O (stereo not given)	inconclusive: 22.4 µM [inhibitor, single point]	
Cc1nc2ccccc2n1CC(=O)OCC(=O)NC1CC1		inactive: 0.247% [at 46.1 µM]
COc1ccc(S(=O)(=O)Nc2c(O)ccc3ccccc23)cc1OC		inconclusive: 6.8% [activator]
Cc1cccc(-n2cc(CN3CCCN(C=O)CC3)c(-c3cccc(F)c3)n2)c1	inconclusive: 4.47 µM [activator, single point]	
CN1CCN(c2nc3c(c(=O)n(C)c(=O)n3C)n2Cc2ccccc2F)CC1		inactive: -2.08%
Cc1nn(C)c(C)c1CN(C(=O)CCc1nnc(Cc2c[nH]c3ccccc23)o1)C(C)C	inconclusive: 1.26 µM [activator, partial curve, poor fit]	
Cc1ccc(Oc2ncccc2/C=N/OCc2ccc(Cl)c(Cl)c2)cc1	inconclusive: 6.31 µM [activator, full curve, poor fit]	
Cc1cccc(NC(=O)c2ccc(NS(=O)(=O)c3cccc4cccnc34)cc2)c1		inactive: -0.314% [at 46.1 µM]
Cc1oc(-c2ccc(Cl)cc2)nc1CN1CCCC(C(=O)NCc2ccc(Cl)cc2)C1 (stereo not given)		inactive: 9.31% [at 46.1 µM]
CCCOc1ccccc1C(=O)Nc1nc2c(s1)CCCC2	inconclusive: 20 µM [inhibitor, partial curve, poor fit]	
CSc1nc(-c2ccc(Cl)cc2)nn1C(=O)c1ccccc1		inactive: 24.9%
Cc1cccc(NC(=S)N/N=C(\c2ccccc2)C(C)C)c1		inactive: -19.4% [at 46.1 µM]
CCn1c(SCC(=O)Nc2ccc(OC)cc2OC)nc2nc3c(cc2c1=O)COC(C)(C)C3		inactive: 3.39% [at 46.1 µM]
Cc1csc(NC(=O)CSc2nncs2)n1	inconclusive: 1 µM [activator, partial curve, poor fit]	
CC(NC(=O)COC(=O)c1ccccc1O)C1CC2CCC1C2 (stereo not given)	inconclusive: 15.8 µM [inhibitor, single point]	
CCC(C)(C)NC(=O)c1ccc2c(c1)OCCO2	inconclusive: 20 µM [activator, single point]	
COC(=O)Cc1c(C)c2ccc(OCc3nn[nH]n3)c(C)c2oc1=O		inactive: 11.9%
COC(=O)c1cccc(NC(=O)c2ccc(OC)c(Cl)c2)c1	inconclusive: 15.8 µM [inhibitor, partial curve, poor fit]	
CCn1c(CN2CCC(C)CC2)nc2cc(NC(=O)c3cccc([N+](=O)[O-])c3)ccc21	inconclusive: 35.5 µM [inhibitor, single point]	
Cc1ccc(CNC(=O)CCCOc2cc(=O)n(C)c3ccccc23)o1		inactive: -0.936%
O=C(c1ccc(Cl)c([N+](=O)[O-])c1)N(Cc1ccc(Cl)cc1)C1CCS(=O)(=O)C1 (stereo not given)	inconclusive: 0.92 µM [inhibitor, full curve, poor fit]	
O=C(COc1ccc([N+](=O)[O-])cc1)N/N=C/c1cc([N+](=O)[O-])ccc1N1CCOCC1		inactive: -18.8%

Structure (SMILES)	Potency	activity change, negative = inhibition
O=C(NC(=S)NCc1ccco1)c1ccccc1		inactive: 29.8% [at 46.1 µM]
O=C1N=C(N2CCOCC2)S/C1=C\c1ccc(-c2ccccc2Cl)o1	inconclusive: 6.51 µM [inhibitor, single point]	
CC(=O)c1c(C)[nH]c(C(=O)OCc2ccc(Br)cc2)c1C	inconclusive: 11.2 µM [inhibitor, partial curve, poor fit]	
COc1ccccc1N1C(=O)C2C(C(=O)c3ccccc3)=NN(c3ccc(Br)cc3)C2C1=O (stereo not given)	inconclusive: 10 µM [inhibitor, partial curve]	
CCOc1ccc(CCNC(=O)[C@@H](O)c2ccccc2)cc1		inactive: 14.4%
CCOC(=O)c1ccc(NC(=S)Nc2ccccc2)cc1		inactive: 24.5%
Cc1c(NC(=O)COc2cccc(Br)c2)c(=O)n(-c2ccccc2)n1C	inconclusive: 11.2 µM [inhibitor, single point]	
O=C(NC1(C(F)(F)F)N=C(c2ccccc2)N(C2CCCCC2)C1=O)c1ccccc1F (stereo not given)		inactive: -21.3% [at 46.1 µM]
COc1cc(C)ccc1N(CCCN1C(=O)c2cccc3cccc(c23)C1=O)C(=O)c1cccs1	inconclusive: 14.1 µM [inhibitor, partial curve, poor fit]	
CC(=O)c1c(C)[nH]c(C(=O)Nc2nc(C)cs2)c1C	active: 1.78 µM	
CCOc1cc(/C=N/Nc2ncc(C)c(=O)[nH]2)ccc1O	inconclusive: 10 µM [inhibitor, partial curve]	
COc1ccc(C2NC(=S)NC(C)=C2C(=O)Nc2ccccn2)cc1OC (stereo not given)	inconclusive: 7.08 µM [activator, full curve]	
CCOc1ccc(NC(=O)COc2cccc3c2CCN(Cc2cccnc2)C3=O)cc1	inconclusive: 35.5 µM [inhibitor, single point]	
Nc1ccc(-n2nc3ccccc3n2)cc1	inconclusive: 7.94 µM [inhibitor, partial curve, poor fit]	
CCCc1ccc2oc(C(=O)NCCc3nc(C(=O)OCC)cs3)c(C)c2c1	inconclusive: 35.5 µM [inhibitor, single point]	
COc1cc(NC(=O)CN2CCC(Cc3ccccc3)CC2)c(C)cc1[N+](=O)[O-]	inconclusive: 0.794 µM [inhibitor, full curve, poor fit]	
COc1cccc2cc(C(=O)NCc3ccco3)c(=O)oc12	inconclusive: 17.8 µM [activator, single point]	
COc1cccc(N2CC(=O)N(NC(=O)CSc3nc(C)cc(C)c3C#N)CC2=O)c1	inconclusive: 3.55 µM [inhibitor, single point]	
CC(C)OCCCNc1ncnc2c1cnn2-c1ccccc1	inconclusive: 12.6 µM [inhibitor, single point]	
COc1cc(C(C)=NNC(=O)c2ccncc2)ccc1O		inactive: 3%
COC(=O)c1cc2sc(Cl)cc2n1Cc1nc(-c2ccccc2F)oc1C		inactive: 0.2% [at 46.1 µM]
O=C1C2C3C=CC(CC3)C2C(=O)N1/N=C/c1c[nH]c2ccccc12 (stereo not given)	inconclusive: 2.82 µM [activator, full curve, poor fit]	

Some of the entries so far, bar-delimited:
Structure (SMILES) | Potency | activity change, negative = inhibition
CCOc1ccc(NC(=O)COc2cccc3c2CCN(Cc2cccnc2)C3=O)cc1 | inconclusive: 35.5 µM [inhibitor, single point] | 
Nc1ccc(-n2nc3ccccc3n2)cc1 | inconclusive: 7.94 µM [inhibitor, partial curve, poor fit] | 
